# The full ranking holds about 33,000 sequences; the median of “E-score (-0.5 to 0.5)” is about -0.0014, and the highest 2% start at about 0.25. The list shows a part of the results.
# Biological target: T1, Cad1 (UniProt P24813)
# T1 sequence: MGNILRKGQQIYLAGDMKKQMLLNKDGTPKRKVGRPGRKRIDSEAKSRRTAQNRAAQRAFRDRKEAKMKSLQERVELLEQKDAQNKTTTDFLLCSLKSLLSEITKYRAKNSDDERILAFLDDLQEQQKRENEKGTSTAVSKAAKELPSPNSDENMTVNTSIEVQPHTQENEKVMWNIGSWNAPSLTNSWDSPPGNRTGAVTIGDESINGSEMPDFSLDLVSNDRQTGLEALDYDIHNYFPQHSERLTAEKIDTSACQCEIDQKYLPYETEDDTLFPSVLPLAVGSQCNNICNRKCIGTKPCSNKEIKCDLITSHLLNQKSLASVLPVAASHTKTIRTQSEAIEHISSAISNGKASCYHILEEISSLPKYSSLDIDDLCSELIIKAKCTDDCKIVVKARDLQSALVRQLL
# Assay: PBM E-score (8-mer binding enrichment) (E-score (-0.5 to 0.5)); higher = stronger / more preferred TF binding
# Conditions: protein concentration: 100 nM; construct: GST-full length
# Procedure: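 Universal 'all 10-mer' protein binding microarrays (Agilent AMADID 015681) probed with GST-tagged S. cerevisiae TFs (full-length or DBD) made by in vitro transcription/translation (PURExpress), about 100-200 nM. Bound TF was detected with fluorescent anti-GST. Each ungapped 8-mer (which stands for itself and its reverse complement) is scored by the PBM enrichment score (E-score), a modified Wilcoxon-Mann-Whitney statistic from -0.5 to +0.5, computed with the Universal PBM Analysis Suite. Scale: above 0.35 generally sequence-specific binding.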
row,Sequence,PBM E-score
1,GATCTCAA,0.114
2,ACTGGCAC,0.0167
3,AGTGCCAA,-0.105
4,GGATGGCC,-0.0942
5,AGCGAGTA,0.148
6,GCTCATGA,0.0686
7,GAGGGGTA,-0.148
8,AGAGCGAA,-0.108
9,CATTAGAC,-0.187
10,AAGAAATC,-0.034
11,GAGAATAA,0.16
12,CCCCGTGA,-0.156
13,CGCAGGTC,-0.188
14,GGATAAAC,0.167
15,AAACTAGC,-0.0196
16,AAAGCACA,0.0452
17,GGTTACAA,0.163
18,AATACATA,0.0519
19,AACGGGCG,0.0329
20,AACCTGCA,0.196
21,AGCAACAA,0.221
22,ACGGTGAT,-0.00573
23,CAACGCGC,0.311
24,AATATCTC,0.151
25,ATATTGCG,0.192

row,Sequence,PBM E-score
1,ACTCATTA,0.109
2,ACAGAGCA,0.0563
3,GTCCTCGA,0.0464
4,GCAACCAC,-0.0341
5,ACCCATTG,-0.193
6,ACGTTGCC,-0.0546
7,CTGGTCTC,-0.223
8,GAACTGAC,0.027
9,CCACTAAA,0.0682
10,ACAACGCA,0.0691
11,AGTTGGAG,-0.0898
12,CCTAGAAC,0.0555
13,ATGGAATA,0.135
14,AAAACCAG,0.0595
15,CCTATCTA,-0.0911
16,ATTTGATC,-0.0183
17,CGCCTCAG,0.00601
18,AATACCCC,-0.0618
19,GATTGGAC,0.029
20,ATCCGTCG,0.115
21,TAATCCCA,-0.0386
22,TAAAGAGA,-1e-05
23,GTCACTCA,-0.0176
24,CAGGCGGA,0.0668
25,GCAGCTCA,-0.101

row,Sequence,PBM E-score
1,CAGCGATC,0.00343
2,TGATAACA,0.185
3,ACTGCGTG,-0.0586
4,GCAATCTA,-0.062
5,AACACCGC,0.00817
6,AAAATCAA,0.121
7,GGAACGCC,-0.0791
8,ACGGCCTG,0.0523
9,CCACCTGA,-0.00302
10,ATTTGCAA,0.277
11,ATCACTAC,-0.0793
12,TGTCTTAA,0.0428
13,AGTTCGGA,-0.0209
14,ATTGGGTG,0.223
15,ATTTTGCC,0.00727
16,ACAGAGAT,0.114
17,CACGCACG,-0.131
18,GTCCGGAA,0.185
19,ACTAGGCA,-0.12
20,CATCGTGG,-0.134
21,ACCGTGGG,-0.164
22,TGCAGTAA,0.00273
23,AGGAGGGA,-0.172
24,GTTTCAAA,0.0237
25,AGGTCGCA,-0.0717

row,Sequence,PBM E-score
1,ACGGCAGC,-0.0399
2,CGTAGTGA,-0.0912
3,ACATACTC,-0.0622
4,AATGTAGC,-0.00519
5,GACACCAC,-0.0527
6,AGATAAAT,0.139
7,GCCACTAA,0.00114
8,ACTCGGCA,0.0624
9,GCTCGTAA,-0.0485
10,AAGTGTCA,-0.115
11,GCACACAA,0.127
12,ACAAAAGC,0.157
13,GTGCTCCA,-0.119
14,CAAATGTG,0.145
15,AAGTGAAC,-0.0802
16,AGGGAGAT,-0.277
17,AACGCTGC,0.0374
18,ATGATACC,0.151
19,ACCTCTAT,0.0745
20,GTTTAATA,0.189
21,ACTGACTA,0.116
22,AAGCCGAA,0.0954
23,AAAACCTA,0.121
24,CCGTACCC,-0.0621
25,CGCCGCCA,-0.137

row,Sequence,PBM E-score
1,AAGTAAAA,0.0173
2,TCCGGACA,0.205
3,TACCTATA,-0.0582
4,AATCCAAG,0.143
5,AGGCGATA,-0.117
6,GTGTTACA,-0.0597
7,AAACGCTA,-0.159
8,GACGACAA,0.208
9,CGTCAGAG,-0.0391
10,GCCGTAGC,-0.0885
11,GCACCACC,-0.16
12,CCTACAAA,-0.0767
13,CACTGGCG,-0.0107
14,GGGCCTAC,-0.3
15,ATGTCCCG,-0.137
16,CAATACAC,0.228
17,ACTGTGCT,-0.0333
18,ACCCGAGA,0.0384
19,AGACCCGG,-0.149
20,CGGTGAGA,0.022
21,GCCTAACA,0.098
22,GTACCTTA,0.0564
23,CAATGCAA,0.0827
24,TATCAATA,0.177
25,AACCACAC,0.0857

# Laid out differently: entries from further up
row | Sequence | PBM E-score
25 | AGGTCGCA | -0.0717
1 | ACGGCAGC | -0.0399
2 | CGTAGTGA | -0.0912
3 | ACATACTC | -0.0622
4 | AATGTAGC | -0.00519
5 | GACACCAC | -0.0527
6 | AGATAAAT | 0.139
7 | GCCACTAA | 0.00114
9 | GCTCGTAA | -0.0485
10 | AAGTGTCA | -0.115
11 | GCACACAA | 0.127
12 | ACAAAAGC | 0.157
13 | GTGCTCCA | -0.119
14 | CAAATGTG | 0.145
15 | AAGTGAAC | -0.0802
16 | AGGGAGAT | -0.277
17 | AACGCTGC | 0.0374
18 | ATGATACC | 0.151
19 | ACCTCTAT | 0.0745
20 | GTTTAATA | 0.189
21 | ACTGACTA | 0.116
22 | AAGCCGAA | 0.0954
24 | CCGTACCC | -0.0621
25 | CGCCGCCA | -0.137
1 | AAGTAAAA | 0.0173
2 | TCCGGACA | 0.205
3 | TACCTATA | -0.0582
4 | AATCCAAG | 0.143
5 | AGGCGATA | -0.117
6 | GTGTTACA | -0.0597
7 | AAACGCTA | -0.159
8 | GACGACAA | 0.208
9 | CGTCAGAG | -0.0391
10 | GCCGTAGC | -0.0885
11 | GCACCACC | -0.16
12 | CCTACAAA | -0.0767
13 | CACTGGCG | -0.0107
14 | GGGCCTAC | -0.3
15 | ATGTCCCG | -0.137
17 | ACTGTGCT | -0.0333
18 | ACCCGAGA | 0.0384
19 | AGACCCGG | -0.149
20 | CGGTGAGA | 0.022
21 | GCCTAACA | 0.098
22 | GTACCTTA | 0.0564
23 | CAATGCAA | 0.0827
24 | TATCAATA | 0.177
25 | AACCACAC | 0.0857

# Later entries

row,Sequence,PBM E-score
1,ATTGGAAA,-0.0143
2,AGTAAAAT,0.216
3,CGGAGACC,-0.0789
4,CTGACAGA,0.192
5,CTATTAAG,-0.191
6,AAGCATCC,-0.23
7,CGGGCTCA,-0.276
8,AGCCGCCA,-0.226
9,TCACGGAA,0.0721
10,ATATAAAG,-0.0214
11,GGCGCATA,0.0456
12,TGCATCAA,0.198
13,ATCATCCA,-0.00907
14,TGGCCTAA,0.0681
15,AACCGTCT,-0.099
16,CAAGACCG,-0.05
17,ACTGCCTC,-0.192
18,CATGAGAC,-0.171
19,CTCTGAAG,-0.153
20,AAAGCCAC,-0.0588
21,AGGCCCGC,0.0969
22,GATAGTAA,0.156
23,GTCAAAAC,0.0371
24,TATGTACA,-0.00213
25,CACATCGC,-0.0385

row,Sequence,PBM E-score
1,AAAACGTC,0.175
2,GTGAGCTA,-0.029
3,CCCACTAG,-0.257
4,AATCAACT,0.152
5,CAAATAAC,0.181
6,AGTTTTAT,0.103
7,CCGAAGTA,-0.0817
8,CGCCATAC,0.102
9,TAGAAGAA,-0.125
10,AACCATTC,-0.0245
11,CAATGCCA,-0.0658
12,CGTTCTTA,0.0967
13,ACATCGCC,0.0313
14,CGTACGCA,0.00346
15,TCCTGCAA,0.0444
16,GGGGCGAC,-0.16
17,CGACATAG,-0.0597
18,TGGCATAA,0.168
19,AAAAATTG,-0.134
20,AAAGGACG,-0.0954
21,TGACTGCA,0.069
22,CTGGAGAC,-0.122

# Reference: the supplement of paper PMC3334620
